Earlier results as cited in US20220226586A1, “An Inhaler For Electronically Supervised Parenteral Administration of a Pharmaceutical Composition” (Celon Pharma S.A., priority 2019, published 2022).
Some of these results come from one statement about several compounds together.

System: treatment-resistant depression
Conditions: single dose; cited from earlier work

Structure (SMILES)	time to antidepressant effect from administration
CNC1(c2ccccc2Cl)CCCCC1=O (racemic) [ketamine]	2 to 3 h
CN[C@]1(c2ccccc2Cl)CCCCC1=O [esketamine]	2 to 3 h
